Results on one substance are retold here after PMC12611961.

These are yes or no findings as the source states them, for the method shown.

For the assay, the target named is T1, SlAOS (pGBKT7-SlAOS) (tomato (Solanum lycopersicum)) (UniProt K4BV52).
T1 sequence: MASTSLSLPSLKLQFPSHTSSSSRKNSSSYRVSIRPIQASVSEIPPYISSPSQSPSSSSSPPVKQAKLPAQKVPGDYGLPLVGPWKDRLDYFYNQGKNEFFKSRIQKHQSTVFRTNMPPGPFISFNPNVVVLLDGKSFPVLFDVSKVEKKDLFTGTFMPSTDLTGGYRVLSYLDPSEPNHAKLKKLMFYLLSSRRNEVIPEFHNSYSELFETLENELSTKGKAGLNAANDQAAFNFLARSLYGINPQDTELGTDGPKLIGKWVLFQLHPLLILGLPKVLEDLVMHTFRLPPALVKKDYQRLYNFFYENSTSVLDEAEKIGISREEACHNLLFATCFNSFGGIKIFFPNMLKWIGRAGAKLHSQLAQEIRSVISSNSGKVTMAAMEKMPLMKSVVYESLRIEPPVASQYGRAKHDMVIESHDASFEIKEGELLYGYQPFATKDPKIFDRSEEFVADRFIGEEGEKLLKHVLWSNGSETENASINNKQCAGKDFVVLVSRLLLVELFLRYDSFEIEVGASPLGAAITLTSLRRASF
In words: two-hybrid; yeast AH109; pGADT7 fusion with pGBKT7 fusion; SD/-Leu/-Trp/-Ade/-His with 10 mM 3-AT (legend: 50 mM 3-AT), X-alpha-gal; 30 C, 3 days.

Turning to “SlWRKY75 (pGADT7-SlWRKY75) (from UniProt A0A3Q7GE34)”, the binding result is “no binding”.
